The M2OR odorant receptor database
Substitutions are numbered along the chain they refer to. Only a part is listed here, and it is no random draw. Calls are pooled over several reports, among them a noisy single-well screen. The list shows a part of the results. The list shows a part of the results.

Chains of the proteins cited; added tags and fusions are not shown. A line that says so, or that is headed by a name, gives the form on record, which may keep a tag or linker.
OR1A1, as listed by the source: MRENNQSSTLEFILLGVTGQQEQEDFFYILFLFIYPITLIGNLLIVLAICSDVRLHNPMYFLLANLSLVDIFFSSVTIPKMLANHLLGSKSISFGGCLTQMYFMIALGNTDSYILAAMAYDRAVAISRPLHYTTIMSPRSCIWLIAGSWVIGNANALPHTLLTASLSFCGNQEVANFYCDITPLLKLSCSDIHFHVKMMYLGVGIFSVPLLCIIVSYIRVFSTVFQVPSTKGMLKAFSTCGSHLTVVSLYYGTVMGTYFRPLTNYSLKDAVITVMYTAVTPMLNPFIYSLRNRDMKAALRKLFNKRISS

Columns and labels:
Settings in all cases: stereoisomer not certain
OR13C3 (Homo sapiens) = target: T1, OR13C3 (Homo sapiens) (UniProt Q8NGS6)
T1 sequence (whole entry): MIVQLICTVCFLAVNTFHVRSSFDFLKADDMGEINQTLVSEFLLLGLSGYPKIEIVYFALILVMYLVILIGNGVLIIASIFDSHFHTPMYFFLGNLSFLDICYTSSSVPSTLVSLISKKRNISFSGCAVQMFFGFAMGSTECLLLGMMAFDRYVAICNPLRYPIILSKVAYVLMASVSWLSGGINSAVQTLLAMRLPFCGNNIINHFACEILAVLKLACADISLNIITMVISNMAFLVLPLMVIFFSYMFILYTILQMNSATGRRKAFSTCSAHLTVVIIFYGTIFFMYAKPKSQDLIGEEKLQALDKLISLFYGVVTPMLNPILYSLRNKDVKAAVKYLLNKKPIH
How it was run: (§1)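 Whether a receptor–molecule pair is responsive (active) rests on the original authors' judgment that its measured signal was statistically different from baseline. Pairs without that judgment are non-responsive (inactive). Sources used varied assay methods, commonly transient luciferase assays in mammalian cell lines.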

OR13C4 (Homo sapiens) = target: T2, OR13C4 (Homo sapiens) (UniProt Q8NGS5)
T2 sequence (whole entry): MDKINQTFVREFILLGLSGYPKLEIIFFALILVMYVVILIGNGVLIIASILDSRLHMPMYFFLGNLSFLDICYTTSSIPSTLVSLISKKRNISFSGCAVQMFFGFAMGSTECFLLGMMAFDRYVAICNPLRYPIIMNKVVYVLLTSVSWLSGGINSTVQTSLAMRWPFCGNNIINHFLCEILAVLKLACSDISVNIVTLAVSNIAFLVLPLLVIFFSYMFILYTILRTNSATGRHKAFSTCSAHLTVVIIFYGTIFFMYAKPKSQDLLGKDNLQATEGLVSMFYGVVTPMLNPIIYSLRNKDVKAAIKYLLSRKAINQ
How it was run: as §1

OR13C8 (Homo sapiens) = target: T3, OR13C8 (Homo sapiens) (UniProt Q8NGS7)
T3 sequence (whole entry): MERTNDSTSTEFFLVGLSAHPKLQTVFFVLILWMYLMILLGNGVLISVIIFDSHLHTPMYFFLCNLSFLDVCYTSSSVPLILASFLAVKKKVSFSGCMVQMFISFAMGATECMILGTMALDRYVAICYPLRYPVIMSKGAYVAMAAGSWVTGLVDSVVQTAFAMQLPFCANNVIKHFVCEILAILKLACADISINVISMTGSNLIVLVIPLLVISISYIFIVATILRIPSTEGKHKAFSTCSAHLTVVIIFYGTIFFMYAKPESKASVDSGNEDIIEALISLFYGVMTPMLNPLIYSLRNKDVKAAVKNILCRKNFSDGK
How it was run: as §1

OR13H1 (Homo sapiens) = target: T4, OR13H1 (Homo sapiens) (UniProt Q8NG92)
T4 sequence (whole entry): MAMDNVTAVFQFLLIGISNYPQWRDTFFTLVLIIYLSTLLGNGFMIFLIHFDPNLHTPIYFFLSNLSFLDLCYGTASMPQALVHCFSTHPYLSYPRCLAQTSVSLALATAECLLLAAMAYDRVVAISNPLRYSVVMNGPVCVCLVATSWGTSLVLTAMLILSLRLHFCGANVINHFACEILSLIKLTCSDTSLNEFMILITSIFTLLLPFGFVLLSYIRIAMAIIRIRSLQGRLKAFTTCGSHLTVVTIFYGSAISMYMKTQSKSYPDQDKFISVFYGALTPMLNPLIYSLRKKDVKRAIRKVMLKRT
How it was run: as §1

OR14J1 (Homo sapiens) = target: T5, OR14J1 (Homo sapiens) (UniProt Q9UGF5)
T5 sequence (whole entry): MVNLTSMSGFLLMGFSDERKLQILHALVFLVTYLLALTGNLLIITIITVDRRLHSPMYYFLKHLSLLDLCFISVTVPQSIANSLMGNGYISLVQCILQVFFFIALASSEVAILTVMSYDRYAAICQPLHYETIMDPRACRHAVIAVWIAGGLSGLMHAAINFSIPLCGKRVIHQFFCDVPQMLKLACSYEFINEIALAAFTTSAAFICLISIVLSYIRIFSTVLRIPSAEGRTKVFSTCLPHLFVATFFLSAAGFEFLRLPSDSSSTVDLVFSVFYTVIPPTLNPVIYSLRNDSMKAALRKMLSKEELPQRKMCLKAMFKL
How it was run: as §1

OR1A1 (Homo sapiens) = target: T6, OR1A1 (Homo sapiens) (UniProt Q9P1Q5)
T6 sequence (whole entry): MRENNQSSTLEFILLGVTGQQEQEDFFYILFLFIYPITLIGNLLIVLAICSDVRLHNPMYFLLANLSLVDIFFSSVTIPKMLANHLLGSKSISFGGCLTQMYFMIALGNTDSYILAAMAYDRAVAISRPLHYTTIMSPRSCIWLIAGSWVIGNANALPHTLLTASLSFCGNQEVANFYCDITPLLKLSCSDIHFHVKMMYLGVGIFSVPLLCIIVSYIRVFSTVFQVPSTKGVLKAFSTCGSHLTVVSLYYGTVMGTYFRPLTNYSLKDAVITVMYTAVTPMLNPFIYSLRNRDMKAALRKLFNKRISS
How it was run: as §1

OR1A1 [1] = system: T7, OR1A1
T7 sequence (whole entry): T6 sequence (whole entry) with R128H
How it was run: as §1

OR1A1 [2] = system: T8, OR1A1; remark: listed apart in the source
T8 sequence (whole entry): T6 sequence (whole entry) with V233M
How it was run: as §1

OR1A1 [3] = system: T9, OR1A1; remark: listed apart in the source
T9 sequence (whole entry): T6 sequence (whole entry) with P285S
How it was run: as §1

OR1A2 (Homo sapiens) = target: T10, OR1A2 (Homo sapiens) (UniProt Q9Y585)
T10 sequence (whole entry): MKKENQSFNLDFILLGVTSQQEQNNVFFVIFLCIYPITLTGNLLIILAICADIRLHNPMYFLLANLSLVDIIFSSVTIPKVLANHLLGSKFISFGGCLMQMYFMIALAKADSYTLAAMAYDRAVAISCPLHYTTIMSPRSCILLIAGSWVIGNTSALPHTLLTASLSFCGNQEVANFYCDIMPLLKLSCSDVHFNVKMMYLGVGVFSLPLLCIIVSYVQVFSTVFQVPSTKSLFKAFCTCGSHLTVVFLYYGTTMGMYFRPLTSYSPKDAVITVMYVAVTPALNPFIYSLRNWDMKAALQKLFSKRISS
How it was run: as §1

Measured: odorant receptor agonist call;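 note: active if original authors judged signal statistically different from baseline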

CCC(C)=O
inactive: all assays above

CS
active: OR1A1 [2]
inactive: all other assays above

CCCCOC(C)=O
active: OR1A1 [2]
inactive: all other assays above

CCOc1cc(C=O)ccc1O
inactive: OR1A1 (Homo sapiens)
